Reference: PubChem BioAssay AID743454 (Peter MacCallum Cancer Centre, 2014)

Screen: 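Knock-downs lowering viability or raising caspase 3/7 activity in vorinostat-treated resistant cells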 (primary screen)
Cell system: human HCT116-VR colon cancer cells, selected for vorinostat resistance
Knock-down reagent: siRNA pool against human genes, 40 nM siRNA pool
Duration: vorinostat for 24 h, read-out about 72 h after transfection
Challenge: vorinostat at 2.5 µM final
Measured: 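Cell viability by CellTiter-Fluor and caspase 3/7 activity by luminescence, each scaled to mock wells per plate, duplicates averaged, then robust z-scored over all plates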
Scale: viability robust z-score: higher = more viable cells than screen typical; caspase robust z-score: higher = more caspase 3/7 activity than screen typical
Rule for the call: 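a knock-down is a hit when classed RV1 or RV2 for lowered viability, or CA1 or CA2 for caspase activation; those lethal without drug were dropped; hits were retested singly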
The deposit covers about 18,000 reagents; this is a part drawn at random. In the full data, 450 (2.5%) were called active. 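Single biological run; no consistent viability z cut-off exists, so the class columns, not z-scores, define the calls.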

PRXL2C
- viability hit class: no change
- caspase hit class: no change
- viability robust z-score: 0.27
- caspase robust z-score: -0.04
- activity call: inactive

ZWINT
- viability hit class: no change
- caspase hit class: no change
- viability robust z-score: -0.09
- caspase robust z-score: 0.4
- activity call: inactive

SIRT1
- viability hit class: no change
- caspase hit class: no change
- viability robust z-score: 0.04
- caspase robust z-score: -1.18
- activity call: inactive

POPDC1
- viability hit class: no change
- caspase hit class: no change
- viability robust z-score: 0.09
- caspase robust z-score: -0.65
- activity call: inactive

Continued (2 carried over from the part before).
SIRT1
- viability hit class: no change
- caspase hit class: no change
- viability robust z-score: 0.04
- caspase robust z-score: -1.18
- activity call: inactive

POPDC1
- viability hit class: no change
- caspase hit class: no change
- viability robust z-score: 0.09
- caspase robust z-score: -0.65
- activity call: inactive

FGD6
- viability hit class: no change
- caspase hit class: no change
- viability robust z-score: 0.46
- caspase robust z-score: -0.64
- activity call: inactive

ZNF627
- viability hit class: no change
- caspase hit class: no change
- viability robust z-score: 0.59
- caspase robust z-score: -0.72
- activity call: inactive

PDIK1L
- viability hit class: no change
- caspase hit class: no change
- viability robust z-score: -0.07
- caspase robust z-score: -0.31
- activity call: inactive

YAE1
- viability hit class: no change
- caspase hit class: no change
- viability robust z-score: 2.08
- caspase robust z-score: 0.12
- activity call: inactive

FAM131C
- viability hit class: no change
- caspase hit class: no change
- viability robust z-score: -0.87
- caspase robust z-score: 0.68
- activity call: inactive

LYSMD3
- viability hit class: no change
- caspase hit class: no change
- viability robust z-score: -0.58
- caspase robust z-score: 0.82
- activity call: inactive

ACVR1B
- viability hit class: no change
- caspase hit class: no change
- viability robust z-score: -0.42
- caspase robust z-score: -0.5
- activity call: inactive

PROCA1
- viability hit class: no change
- caspase hit class: no change
- viability robust z-score: -0.31
- caspase robust z-score: -0.45
- activity call: inactive

MYO1E
- viability hit class: no change
- caspase hit class: no change
- viability robust z-score: -2.09
- caspase robust z-score: 1.65
- activity call: inactive

TRIM73
- viability hit class: no change
- caspase hit class: no change
- viability robust z-score: -1.96
- caspase robust z-score: 3.32
- activity call: inactive
